Measurements taken from article PMC7175122 (Biomolecules, 2020).
Square brackets hold non-standard residues; d marks the D form. Side chains are listed from the residue outwards. hArg = N=C(N)NCCCC[C@H](N)C(=O)O; ΔPro = O=C(O)[C@@H]1C=CCN1; Dab = NCC[C@H](N)C(=O)O

Test: general procedure: Fmoc solid-phase peptide synthesis; preloaded Fmoc-Arg(Pbf) Wang resin, 0.39 mmol/g; HATU/DIPEA
Conditions: whole synthesis, scale of the general procedure 0.5 g resin, TFA

Substance | isolated yield
H-CKPRR-OH | 68%
H-K([hArg-Asp-Cys])[Dab][ΔPro]R-OH | 46%
H-CTKPR-OH | 68%
H-CLPPR-OH | 65%
H-CDK(hArg)[Dab][ΔPro]R-OH (SMILES N=C(N)NCCCC[C@H](N)C(=O)NCCCC[C@H](NC(=O)[C@H](CC(=O)O)NC(=O)[C@@H](N)CS)C(=O)N[C@@H](CCN)C(=O)N1CC=C[C@H]1C(=O)N[C@@H](CCCNC(=N)N)C(=O)O) | 41%
H-CK(hArg)[Dab][ΔPro]R-OH (SMILES N=C(N)NCCCC[C@H](N)C(=O)NCCCC[C@H](NC(=O)[C@@H](N)CS)C(=O)N[C@@H](CCN)C(=O)N1CC=C[C@H]1C(=O)N[C@@H](CCCNC(=N)N)C(=O)O) | 51%
H-K([hArg-Cys])[Dab][ΔPro]R-OH | 48%
